Source: the supplement of paper PMC10849652
The list shows a part of the results.

Chains of the proteins cited; added tags and fusions are not shown. Lines headed by an entry give the natural chain unless they say otherwise; changes in a name come on top.
UniProt O95248: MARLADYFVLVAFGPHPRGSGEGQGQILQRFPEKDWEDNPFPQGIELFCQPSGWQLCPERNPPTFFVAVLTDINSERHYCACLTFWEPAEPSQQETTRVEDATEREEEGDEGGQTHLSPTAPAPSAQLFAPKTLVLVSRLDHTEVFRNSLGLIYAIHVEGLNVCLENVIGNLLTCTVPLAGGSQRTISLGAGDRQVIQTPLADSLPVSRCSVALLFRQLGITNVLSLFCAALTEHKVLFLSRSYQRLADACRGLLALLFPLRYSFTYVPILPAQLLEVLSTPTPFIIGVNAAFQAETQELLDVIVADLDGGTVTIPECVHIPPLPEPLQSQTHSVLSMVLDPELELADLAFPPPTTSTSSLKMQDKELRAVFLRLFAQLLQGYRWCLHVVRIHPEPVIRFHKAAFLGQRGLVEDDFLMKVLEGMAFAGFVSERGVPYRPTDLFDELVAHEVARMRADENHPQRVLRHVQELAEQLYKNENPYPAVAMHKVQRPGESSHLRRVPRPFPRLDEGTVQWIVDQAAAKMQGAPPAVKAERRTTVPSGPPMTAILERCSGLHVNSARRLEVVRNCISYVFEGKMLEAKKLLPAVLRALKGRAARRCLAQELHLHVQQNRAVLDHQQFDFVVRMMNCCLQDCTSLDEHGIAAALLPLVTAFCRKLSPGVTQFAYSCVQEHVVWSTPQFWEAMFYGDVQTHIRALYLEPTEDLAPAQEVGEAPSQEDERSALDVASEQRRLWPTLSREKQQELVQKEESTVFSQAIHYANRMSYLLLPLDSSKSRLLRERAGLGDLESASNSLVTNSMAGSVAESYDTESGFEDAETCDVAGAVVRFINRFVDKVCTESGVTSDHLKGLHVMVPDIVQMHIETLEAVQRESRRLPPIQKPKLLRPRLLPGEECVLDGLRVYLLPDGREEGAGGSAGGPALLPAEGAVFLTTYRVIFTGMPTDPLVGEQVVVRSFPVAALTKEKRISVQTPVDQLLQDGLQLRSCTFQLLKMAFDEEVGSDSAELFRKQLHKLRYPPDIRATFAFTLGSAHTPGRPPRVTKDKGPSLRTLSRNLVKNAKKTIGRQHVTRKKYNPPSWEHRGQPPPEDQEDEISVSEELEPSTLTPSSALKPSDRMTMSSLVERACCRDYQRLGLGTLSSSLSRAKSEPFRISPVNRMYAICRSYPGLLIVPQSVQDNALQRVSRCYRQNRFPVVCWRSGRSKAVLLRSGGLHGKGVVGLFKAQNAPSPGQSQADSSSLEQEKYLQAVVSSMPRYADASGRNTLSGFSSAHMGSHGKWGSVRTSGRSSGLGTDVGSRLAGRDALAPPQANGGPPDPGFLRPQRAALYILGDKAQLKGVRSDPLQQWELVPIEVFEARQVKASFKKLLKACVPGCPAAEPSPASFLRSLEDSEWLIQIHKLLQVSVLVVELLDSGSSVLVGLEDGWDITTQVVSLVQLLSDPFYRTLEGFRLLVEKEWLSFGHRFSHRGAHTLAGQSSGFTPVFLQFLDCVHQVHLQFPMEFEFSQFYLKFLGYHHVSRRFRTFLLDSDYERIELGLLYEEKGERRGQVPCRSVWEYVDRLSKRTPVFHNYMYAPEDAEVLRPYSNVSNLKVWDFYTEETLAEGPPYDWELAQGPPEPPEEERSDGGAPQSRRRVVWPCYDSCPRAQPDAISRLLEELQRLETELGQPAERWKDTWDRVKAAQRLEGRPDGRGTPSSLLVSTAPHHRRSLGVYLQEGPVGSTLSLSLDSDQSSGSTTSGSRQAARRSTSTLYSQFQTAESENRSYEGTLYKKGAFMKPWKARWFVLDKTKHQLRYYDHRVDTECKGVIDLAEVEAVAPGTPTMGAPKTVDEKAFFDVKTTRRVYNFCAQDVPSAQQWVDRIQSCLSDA
UniProt P22307: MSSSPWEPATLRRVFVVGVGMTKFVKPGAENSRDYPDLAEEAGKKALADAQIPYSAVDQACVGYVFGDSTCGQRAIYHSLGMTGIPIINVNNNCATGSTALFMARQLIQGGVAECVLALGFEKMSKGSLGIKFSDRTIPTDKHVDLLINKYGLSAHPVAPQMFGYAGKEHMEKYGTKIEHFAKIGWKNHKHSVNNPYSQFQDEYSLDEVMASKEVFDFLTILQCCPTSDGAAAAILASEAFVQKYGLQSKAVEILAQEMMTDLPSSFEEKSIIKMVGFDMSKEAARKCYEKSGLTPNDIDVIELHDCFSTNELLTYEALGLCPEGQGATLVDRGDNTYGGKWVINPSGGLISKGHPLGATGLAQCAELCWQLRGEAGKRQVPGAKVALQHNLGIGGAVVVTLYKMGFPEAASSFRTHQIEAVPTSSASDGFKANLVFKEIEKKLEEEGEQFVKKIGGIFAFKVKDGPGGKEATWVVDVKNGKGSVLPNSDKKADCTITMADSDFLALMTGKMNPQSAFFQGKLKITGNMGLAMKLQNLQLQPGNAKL
UniProt O94979: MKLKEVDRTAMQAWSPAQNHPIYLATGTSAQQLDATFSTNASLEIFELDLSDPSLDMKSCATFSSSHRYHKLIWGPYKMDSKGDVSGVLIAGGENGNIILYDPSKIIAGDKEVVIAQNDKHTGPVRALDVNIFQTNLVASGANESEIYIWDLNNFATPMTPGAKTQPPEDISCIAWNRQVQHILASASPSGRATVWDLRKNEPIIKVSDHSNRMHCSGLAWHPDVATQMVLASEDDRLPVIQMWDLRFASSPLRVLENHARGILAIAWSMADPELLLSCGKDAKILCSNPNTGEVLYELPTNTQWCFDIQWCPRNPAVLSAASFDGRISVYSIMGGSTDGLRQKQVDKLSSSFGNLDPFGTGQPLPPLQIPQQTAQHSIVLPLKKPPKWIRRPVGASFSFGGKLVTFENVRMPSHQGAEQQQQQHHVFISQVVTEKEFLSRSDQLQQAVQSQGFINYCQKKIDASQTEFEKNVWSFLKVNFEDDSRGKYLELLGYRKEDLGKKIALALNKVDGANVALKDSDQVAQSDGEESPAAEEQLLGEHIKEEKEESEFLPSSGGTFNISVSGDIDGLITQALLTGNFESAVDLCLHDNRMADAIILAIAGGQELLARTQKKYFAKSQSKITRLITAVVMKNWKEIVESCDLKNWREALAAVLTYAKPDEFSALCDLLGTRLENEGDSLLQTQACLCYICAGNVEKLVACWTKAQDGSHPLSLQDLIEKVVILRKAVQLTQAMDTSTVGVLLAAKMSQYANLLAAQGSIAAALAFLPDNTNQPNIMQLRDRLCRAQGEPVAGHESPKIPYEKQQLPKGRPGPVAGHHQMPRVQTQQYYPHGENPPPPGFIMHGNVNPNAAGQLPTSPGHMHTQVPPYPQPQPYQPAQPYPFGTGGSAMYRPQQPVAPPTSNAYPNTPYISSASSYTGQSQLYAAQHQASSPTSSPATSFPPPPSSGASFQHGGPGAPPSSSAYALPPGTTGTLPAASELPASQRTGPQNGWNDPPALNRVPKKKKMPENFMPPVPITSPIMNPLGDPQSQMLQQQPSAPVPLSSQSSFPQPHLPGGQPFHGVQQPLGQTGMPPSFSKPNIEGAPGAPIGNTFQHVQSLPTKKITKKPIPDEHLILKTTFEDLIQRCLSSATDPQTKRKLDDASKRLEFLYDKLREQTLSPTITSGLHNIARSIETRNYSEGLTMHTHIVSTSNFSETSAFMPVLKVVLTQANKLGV
UniProt Q9Y3B9: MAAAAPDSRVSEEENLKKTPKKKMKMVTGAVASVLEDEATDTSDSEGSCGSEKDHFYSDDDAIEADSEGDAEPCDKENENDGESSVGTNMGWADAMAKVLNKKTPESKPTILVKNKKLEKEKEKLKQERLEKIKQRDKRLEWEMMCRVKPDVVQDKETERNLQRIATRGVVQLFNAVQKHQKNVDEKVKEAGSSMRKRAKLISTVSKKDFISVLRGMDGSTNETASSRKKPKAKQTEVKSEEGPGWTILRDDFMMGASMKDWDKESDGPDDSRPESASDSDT
UniProt Q96DX4: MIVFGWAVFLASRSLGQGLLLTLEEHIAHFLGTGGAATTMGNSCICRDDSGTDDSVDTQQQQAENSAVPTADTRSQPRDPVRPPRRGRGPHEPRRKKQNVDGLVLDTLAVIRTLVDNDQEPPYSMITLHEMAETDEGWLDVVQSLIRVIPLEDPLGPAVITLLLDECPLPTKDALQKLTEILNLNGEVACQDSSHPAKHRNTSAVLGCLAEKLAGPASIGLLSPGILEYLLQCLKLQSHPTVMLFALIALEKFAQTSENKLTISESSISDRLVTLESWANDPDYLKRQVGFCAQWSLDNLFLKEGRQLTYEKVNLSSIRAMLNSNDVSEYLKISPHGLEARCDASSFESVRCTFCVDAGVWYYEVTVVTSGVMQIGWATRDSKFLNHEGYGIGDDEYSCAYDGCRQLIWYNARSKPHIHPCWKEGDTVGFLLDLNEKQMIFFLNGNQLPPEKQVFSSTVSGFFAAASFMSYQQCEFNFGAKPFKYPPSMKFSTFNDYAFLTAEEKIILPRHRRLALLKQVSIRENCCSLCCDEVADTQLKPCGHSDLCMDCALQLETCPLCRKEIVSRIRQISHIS
UniProt P21912: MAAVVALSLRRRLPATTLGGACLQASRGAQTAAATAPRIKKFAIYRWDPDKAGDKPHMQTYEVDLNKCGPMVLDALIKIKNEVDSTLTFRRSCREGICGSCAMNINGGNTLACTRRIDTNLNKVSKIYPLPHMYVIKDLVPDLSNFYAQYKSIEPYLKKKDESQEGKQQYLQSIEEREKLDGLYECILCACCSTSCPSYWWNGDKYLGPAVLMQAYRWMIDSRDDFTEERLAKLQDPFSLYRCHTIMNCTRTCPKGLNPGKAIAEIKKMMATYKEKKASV
UniProt Q15050: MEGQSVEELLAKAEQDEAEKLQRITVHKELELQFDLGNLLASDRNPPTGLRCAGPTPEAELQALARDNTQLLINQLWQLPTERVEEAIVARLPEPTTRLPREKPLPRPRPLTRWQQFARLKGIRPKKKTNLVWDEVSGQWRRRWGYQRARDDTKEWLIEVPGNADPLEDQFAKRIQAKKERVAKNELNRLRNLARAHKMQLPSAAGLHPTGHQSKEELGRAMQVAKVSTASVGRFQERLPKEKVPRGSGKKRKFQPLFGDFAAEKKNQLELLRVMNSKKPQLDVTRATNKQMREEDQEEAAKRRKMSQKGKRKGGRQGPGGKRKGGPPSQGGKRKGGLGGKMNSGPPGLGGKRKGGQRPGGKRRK
UniProt P67812: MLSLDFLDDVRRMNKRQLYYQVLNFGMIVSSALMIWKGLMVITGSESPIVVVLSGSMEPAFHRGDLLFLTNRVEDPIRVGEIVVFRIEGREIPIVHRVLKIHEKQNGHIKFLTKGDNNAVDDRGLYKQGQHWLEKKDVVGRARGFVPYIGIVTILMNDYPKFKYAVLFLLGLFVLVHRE
UniProt P25815: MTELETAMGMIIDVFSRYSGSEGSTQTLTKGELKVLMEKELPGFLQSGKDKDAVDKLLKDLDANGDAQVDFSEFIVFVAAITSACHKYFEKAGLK
UniProt Q9HCN8: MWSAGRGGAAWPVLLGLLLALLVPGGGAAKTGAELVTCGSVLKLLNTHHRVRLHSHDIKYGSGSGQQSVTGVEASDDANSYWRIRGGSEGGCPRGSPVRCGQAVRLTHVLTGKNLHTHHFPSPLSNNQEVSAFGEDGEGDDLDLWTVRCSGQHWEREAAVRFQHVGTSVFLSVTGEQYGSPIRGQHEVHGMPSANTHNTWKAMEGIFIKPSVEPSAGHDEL
UniProt Q6P3W7: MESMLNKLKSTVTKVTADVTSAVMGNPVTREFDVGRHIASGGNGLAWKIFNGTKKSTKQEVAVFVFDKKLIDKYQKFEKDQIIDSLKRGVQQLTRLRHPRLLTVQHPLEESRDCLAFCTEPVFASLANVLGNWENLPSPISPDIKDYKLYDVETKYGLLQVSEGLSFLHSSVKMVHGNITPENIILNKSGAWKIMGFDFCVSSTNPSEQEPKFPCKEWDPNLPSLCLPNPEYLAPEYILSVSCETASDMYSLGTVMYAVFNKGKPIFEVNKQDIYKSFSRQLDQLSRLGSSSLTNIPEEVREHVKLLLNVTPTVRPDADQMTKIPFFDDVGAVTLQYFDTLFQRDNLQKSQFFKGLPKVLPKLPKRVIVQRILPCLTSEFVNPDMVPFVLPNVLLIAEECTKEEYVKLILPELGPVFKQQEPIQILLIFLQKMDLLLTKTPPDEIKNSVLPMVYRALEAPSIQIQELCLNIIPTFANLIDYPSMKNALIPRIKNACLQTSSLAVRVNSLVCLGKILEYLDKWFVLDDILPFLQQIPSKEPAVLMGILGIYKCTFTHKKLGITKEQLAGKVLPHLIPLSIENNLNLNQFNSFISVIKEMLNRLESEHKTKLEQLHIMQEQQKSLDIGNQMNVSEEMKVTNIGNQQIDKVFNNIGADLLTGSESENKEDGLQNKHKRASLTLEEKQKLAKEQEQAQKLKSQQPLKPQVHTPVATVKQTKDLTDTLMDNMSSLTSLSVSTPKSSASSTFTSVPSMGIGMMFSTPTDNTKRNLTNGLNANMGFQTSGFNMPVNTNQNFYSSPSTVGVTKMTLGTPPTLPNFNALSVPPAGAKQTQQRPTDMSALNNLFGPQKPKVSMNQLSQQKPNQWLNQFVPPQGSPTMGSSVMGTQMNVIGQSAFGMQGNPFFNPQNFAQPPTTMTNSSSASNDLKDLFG

Legend:
Assay in all cases: log2 fold change, soluble protein after heating vs DMSO (PISA); higher = thermal stabilisation; K562 cells, 10 uM, 30 min; active = over 0.2 and 3.5 SD of the protein, either way, in both replicates (recomputed)
[1] = compound: C#Cc1cccc(Nc2ncnc3cc(OCCOC)c(OCCOC)cc23)c1 [erlotinib]
In short: (§1)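 For each measurement, 10 μM compound was applied for 30 min to K562 cells at 2×10^6 cells/mL. Aliquots were heated for 3 min across 48°C-58°C, pooled, and extracted in PBS with 0.5% NP-40 at 4°C; the supernatant after 21,000xg for 90 min was soluble protein. This was quantified by TMTpro 16plex LC-MS/MS with channel sums equalised, and thermal stability was reported relative to control samples from duplicates, on a log2 fold-change scale.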

[2] = compound: C/C(=N\NC(=O)C1=CC(=CC=C1)S(=O)(=O)N2CCOCC2)/C3=C(C=CC(=C3)Cl)O
In short: as §1

[3] = compound: C1=CC(=C(C=C1Cl)C2=NC3=NC=CN=C3C(=N2)NC4=CC=NC=C4)F
In short: as §1

[4] = compound: C1=CC(=CC=C1C2=NC3=C(N2)C=C(C=C3)C(=O)N)OC4=CC=C(C=C4)Cl
In short: as §1

[5] = compound: C1=CC2=C(C=CC(=C2)/C=C\3/C(=O)NC(=NCC4=CC=CS4)S3)N=C1
In short: as §1

[6] = compound: C1=CC2=NC=CN=C2C=C1/C=C/3\C(=O)NC(=O)S3
In short: as §1

[7] = compound: C1=CC=C(C=C1)C2=NC(=C(N2)C3=CC=NC=C3)C4=CC(=C(C=C4)Cl)O
In short: as §1

[8] = compound: C1=CC=C2C(=C1)C3=NNC4=CC=CC(=C43)C2=O
In short: as §1

[9] = compound: C1CCN(C1)C(=O)NC2=CC=CC(=C2)NC3=NC=C(C(=N3)NCCC4=CN=CN4)Br
In short: as §1

[10] = compound: C1CN(CCC1(CC2=CC=C(C=C2)Cl)N)C3=NC=NC4=C3C=CN4
In short: as §1

Measured: log2 fold change

SBF1 isoform 4 (UniProt O95248)
inactive: [1] -0.064 | [2] 0.05 | [3] -0.127 | [4] 0.057 | [5] -0.005 | [6] -0.206 | [7] -0.061 | [8] -0.056 | [9] -0.258 | [10] -0.087

SART3, A0A499FI31
inactive: [1] -0.034 | [2] 0.058 | [3] 0.102 | [4] 0.032 | [5] 0.032 | [6] 0.084 | [7] -0.004 | [8] -0.045 | [9] -0.078 | [10] -0.014

SCP2 (UniProt P22307)
inactive: [1] 0.016 | [2] 0.022 | [3] 0.034 | [4] -0.011 | [5] 0.026 | [6] 0.016 | [7] -0.053 | [8] 0.019 | [9] 0.007 | [10] 0.018

SEC31A (UniProt O94979)
inactive: [1] 0.049 | [2] 0.023 | [3] 0.006 | [4] -0.025 | [5] 0.094 | [6] 0.016 | [7] -0.045 | [8] 0.023 | [9] -0.06 | [10] -0.025

SDF4 (UniProt Q9BRK5)
inactive: [1] 0.013 | [2] -0.015 | [3] -0.019 | [4] -0.012 | [5] -0.027 | [6] 0.038 | [7] -0.043 | [8] 0.029 | [9] 0.03 | [10] 0.026

RSL24D1 (UniProt Q9UHA3)
inactive: [1] -0.547 | [2] -0.272 | [3] -0.778 | [4] -0.355 | [5] 0.153 | [6] 0.019 | [7] -0.174 | [8] -0.055 | [9] 0.049 | [10] -0.162

SBNO1 (UniProt A3KN83)
inactive: [1] -0.047 | [2] 0.021 | [3] 0.075 | [4] 0.005 | [5] -0.006 | [6] 0.013 | [7] 0.002 | [8] 0.008 | [9] -0.001 | [10] 0.004

RRP15 (UniProt Q9Y3B9)
inactive: [1] -0.003 | [2] -0.031 | [3] -0.061 | [4] 0.025 | [5] -0.061 | [6] 0.024 | [7] -0.036 | [8] -0.043 | [9] -0.042 | [10] 0.061

RRP12 (UniProt Q5JTH9)
inactive: [1] 0.074 | [2] -0.3 | [3] -0.172 | [4] 0.028 | [5] -0.04 | [6] 0.038 | [7] 0.166 | [8] 0.205 | [9] 0.079 | [10] 0.054

RSPRY1 (UniProt Q96DX4)
inactive: [1] 0.028 | [2] 0.079 | [3] 0.016 | [4] 0.041 | [5] 0.017 | [6] -0.042 | [7] -0.006 | [8] -0.026 | [9] -0.014 | [10] 0.033

SCG3 (UniProt Q8WXD2)
inactive: [1] -0.076 | [2] 0.141 | [3] 0.023 | [4] 0.088 | [5] 0.09 | [6] -0.015 | [7] 0.103 | [8] -0.094 | [9] -0.05 | [10] 0.036

RRP7A (UniProt Q9Y3A4)
inactive: [1] -0.075 | [2] 0.026 | [3] -0.101 | [4] 0.004 | [5] -0.176 | [6] -0.014 | [7] 0.038 | [8] 0.141 | [9] -0.068 | [10] -0.089

SCLY (UniProt Q96I15)
inactive: [1] 0 | [2] 0.028 | [3] 0.066 | [4] 0.036 | [5] -0.006 | [6] 0.014 | [7] 0.004 | [8] 0.009 | [9] 0.037 | [10] 0.028

SDHC (UniProt Q99643)
inactive: [1] -0.017 | [2] 0.033 | [3] -0.015 | [4] 0.033 | [5] -0.013 | [6] 0.17 | [7] 0.104 | [8] 0.102 | [9] 0.008 | [10] 0.02

RTCA (UniProt O00442)
inactive: [1] 0.017 | [2] 0.031 | [3] 0.063 | [4] 0.025 | [5] 0.016 | [6] 0.014 | [7] 0.023 | [8] -0.013 | [9] 0.048 | [10] 0.031

SEC24A (UniProt O95486)
inactive: [1] 0.084 | [2] 0.097 | [3] 0.031 | [4] -0.018 | [5] 0.033 | [6] -0.022 | [7] 0.036 | [8] 0.022 | [9] -0.026 | [10] 0.011

SDHB (UniProt P21912)
inactive: [1] -0.025 | [2] -0.033 | [3] -0.015 | [4] -0.012 | [5] -0.044 | [6] 0.033 | [7] 0.013 | [8] -0.016 | [9] 0.035 | [10] 0.037

SC5D (UniProt O75845)
inactive: [1] -0.021 | [2] 0.026 | [3] 0.013 | [4] 0.069 | [5] 0.026 | [6] 0.052 | [7] 0.026 | [8] -0.012 | [9] -0.071 | [10] 0.064

SARG (UniProt Q9BW04)
inactive: [1] 0.027 | [2] -0.047 | [3] 0.012 | [4] 0.006 | [5] -0.004 | [6] 0.002 | [7] -0.055 | [8] 0.013 | [9] 0.046 | [10] 0.026

RRS1 (UniProt Q15050)
inactive: [1] -0.099 | [2] -0.205 | [3] -0.536 | [4] -0.003 | [5] -0.095 | [6] 0.004 | [7] -0.18 | [8] -0.018 | [9] 0.162 | [10] -0.219

Taken from the listing (2 entries):
SC5D (UniProt O75845)
inactive: [1] -0.021 | [2] 0.026 | [3] 0.013 | [4] 0.069 | [5] 0.026 | [6] 0.052 | [7] 0.026 | [8] -0.012 | [9] -0.071 | [10] 0.064

SARG (UniProt Q9BW04)
inactive: [1] 0.027 | [2] -0.047 | [3] 0.012 | [4] 0.006 | [5] -0.004 | [6] 0.002 | [7] -0.055 | [8] 0.013 | [9] 0.046 | [10] 0.026

Following part.

SEC11A isoform 3 (UniProt P67812)
inactive: [1] -0.057 | [2] 0.019 | [3] 0.051 | [4] -0.021 | [5] -0.006 | [6] 0.032 | [7] -0.02 | [8] 0 | [9] -0.012 | [10] 0.008

SCCPDH (UniProt Q8NBX0)
inactive: [1] -0.047 | [2] -0.021 | [3] 0.079 | [4] -0.065 | [5] 0.019 | [6] 0.051 | [7] 0.037 | [8] 0.03 | [9] 0.011 | [10] 0.064

SCAF11 (UniProt Q99590)
inactive: [1] -0.074 | [2] -0.09 | [3] -0.16 | [4] 0.03 | [5] -0.134 | [6] -0.076 | [7] -0.014 | [8] -0.068 | [9] 0.125 | [10] -0.035

S100P (UniProt P25815)
inactive: [1] -0.108 | [2] 0.034 | [3] 0.261 | [4] 0.051 | [5] 0.028 | [6] 0.053 | [7] 0.022 | [8] -0.082 | [9] -0.02 | [10] -0.089

SDF2L1 (UniProt Q9HCN8)
inactive: [1] -0.011 | [2] -0.042 | [3] -0.05 | [4] -0.011 | [5] -0.028 | [6] -0.015 | [7] -0.044 | [8] 0.003 | [9] 0.031 | [10] -0.032

SCYL2 (UniProt Q6P3W7)
inactive: [1] 0.014 | [2] 0.032 | [3] 0.072 | [4] -0.005 | [5] 0.02 | [6] 0.03 | [7] -0.013 | [8] 0.029 | [9] -0.003 | [10] -0.003

SEC13 isoform 3 (UniProt P55735)
inactive: [1] -0.028 | [2] 0.02 | [3] 0.061 | [4] -0.033 | [5] -0.014 | [6] 0.05 | [7] 0.013 | [8] -0.097 | [9] 0.003 | [10] -0.029
